Experimental data: PubChem BioAssay
“And” between values parts separate entries of the source, which are not always exact repeats. Equal entries are not always repeated. The shares of active, inactive and inconclusive entries below differ from those in the screen. Where the call is inconclusive, the potency comes from a doubtful curve fit. The source holds several records for some structures; these can differ, active in one and inactive in another. The source made the active and inactive calls. Unless noted, cut-off not given; nearly all actives show AC50 up to about 26 µM.

Tests used:
[1] = growth inhibition of DIPG glioma cells, dose response, cell-based, SU-DIPG-XVII, MIPE5.0, CellTiter-Glo, qHTS (AID 1347060); details: SU-DIPG-XVII viability, CellTiter-Glo ATP luminescence;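 on AC50: cells exposed to compound for 48 hours before viability readout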
[2] = growth inhibition of DIPG glioma cells, dose response, cell-based, SU-DIPG-XIII, MIPE4.0, CellTiter-Glo, qHTS (AID 1347061; cut-off not given, nearly all actives have AC50 up to about 37 µM;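 further: cells exposed to compound for 48 hours before readout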); details: SU-DIPG-XIII viability, CellTiter-Glo ATP luminescence
[3] = growth inhibition of DIPG glioma cells, dose response, cell-based, JHH-DIPG-1, MIPE4.0, CellTiter-Glo, qHTS (AID 1347062; cut-off not given, nearly all actives have AC50 up to about 27 µM;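 on AC50: cells exposed to compound for two days before readout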); details: JHH-DIPG-1 viability, CellTiter-Glo ATP luminescence
[4] = growth inhibition of DIPG glioma cells, dose response, cell-based, SU-DIPG-IV, MIPE4.0, CellTiter-Glo, qHTS (AID 1347063; cut-off not given, nearly all actives have AC50 up to about 30 µM;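 further: compound exposure lasted 48 hours before the viability readout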); details: SU-DIPG-IV viability, CellTiter-Glo ATP luminescence
[5] = growth inhibition of DIPG glioma cells, dose response, cell-based, SU-DIPG-XIII, MIPE5.0, CellTiter-Glo, qHTS (AID 1347064; cut-off not given, nearly all actives have AC50 up to about 23 µM;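 on AC50: cells exposed to compound for 48 hours before the viability read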); details: SU-DIPG-XIII viability, CellTiter-Glo ATP luminescence
[6] = viability loss in pontine glioma line – cell-based, SU-DIPG-XXV, MIPE5.0, CellTiter-Glo, qHTS, dose response (AID 1347065); details: CellTiter-Glo ATP luminescence;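 further: cells exposed to compound for 48 hours before ATP readout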
[7] = SU-DIPG-VI glioma cell viability, MIPE4.0 library, CellTiter-Glo luminescence, qHTS (AID 1347066; cut-off not given, nearly all actives have AC50 up to about 30 µM;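 further: cells exposed to compound for 48 hours before readout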); details: CellTiter-Glo ATP luminescence
[8] = JHH-DIPG-1 glioma cell viability, MIPE5.0 library, CellTiter-Glo luminescence, qHTS (AID 1347067); details: JHH-DIPG-1 glioma viability, CellTiter-Glo ATP luminescence;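 further: cells exposed to compound for 48 hours before readout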
[9] = SU-DIPG-XXV glioma cell viability, MIPE5.0 library, qHTS (AID 1347068; cut-off not given, nearly all actives have IC50 up to about 30 µM;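 further: cells exposed to compound for 48 hours before viability readout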)

O=C(Nc1cccnc1)N1CCC(Cc2cccc(Oc3ccc(C(F)(F)F)cn3)c2)CC1
inactive: outcome [3]
inconclusive: AC50 [1] 5.25 µM [cytotoxic] | AC50 [2] 16.6 µM [cytotoxic] | AC50 [4] 20.9 µM [cytotoxic] | AC50 [5] 0.00468 µM | AC50 [6] 14.8 µM [cytotoxic] | AC50 [7] 18.7 µM [cytotoxic] | AC50 [8] 11.8 µM [cytotoxic]

COc1ccccc1-c1cccc(-c2c(O)c3cc(C#N)c(Cl)cc3[nH]c2=O)c1
inactive: outcome [1] | outcome [2] | outcome [3]
inconclusive: AC50 [4] 2.7 µM [cytotoxic]

Cc1cc(C)c(CNC(=O)c2cc(-c3ccc(N4CCN(C)CC4)nc3)cc3c2c(C)cn3C(C)C)c(=O)[nH]1
active: AC50 [1] 20.9 µM
inactive: outcome [1] | outcome [5]
inconclusive: AC50 [5] 33.2 µM [cytotoxic] | AC50 [6] 41.7 µM [cytotoxic] | AC50 [8] 33.2 µM [cytotoxic] and 37.2 µM [cytotoxic] | IC50 [9] 37.2 µM [cytotoxic]

OCCC#Cc1nc(-c2ccc(F)cc2)c(-c2ccncc2)n1CCCc1ccccc1
inconclusive: AC50 [1] 33.2 µM [cytotoxic] | AC50 [2] 33.2 µM [cytotoxic] | AC50 [3] 37.2 µM [cytotoxic] | AC50 [4] 26.4 µM [cytotoxic] | AC50 [5] 16.6 µM [cytotoxic] | AC50 [6] 26.3 µM [cytotoxic] | AC50 [7] 20.9 µM [cytotoxic]

Cc1ccc(S(=O)(=O)Nc2nc3ccccc3nc2Nc2ccc3nsnc3c2)cc1
inconclusive: AC50 [2] 2.88 µM [cytotoxic] | AC50 [4] 0.363 µM [cytotoxic] | outcome [6] | AC50 [7] 3.23 µM [cytotoxic]
active: AC50 [3] 0.512 µM
inactive: outcome [1] | outcome [5]

CN(C)N(C)C(=O)[C@@]1(Cc2ccccc2)CCCN(C(=O)[C@@H](Cc2c[nH]c3ccccc23)NC(=O)C(C)(C)N)C1
inconclusive: AC50 [1] 10.5 µM [cytotoxic]

COc1cccc2c1C(=O)c1c(O)c3c(c(O)c1C2=O)C[C@@](O)(C(C)=O)C[C@@H]3O[C@H]1C[C@H](N)[C@H](O)[C@H](C)O1
inconclusive: AC50 [2] 0.0935 µM [cytotoxic] | AC50 [7] 4.69 µM [cytotoxic]
active: AC50 [1] 0.118 µM | AC50 [3] 0.0332 µM | AC50 [4] 0.0469 µM | AC50 [5] 0.742 µM | AC50 [6] 0.742 µM

COc1cc2c(cc1OC)[C@@H]1C(=O)c3ccc4c(c3O[C@@H]1CO2)C=CC(C)(C)O4
active: AC50 [2] 23.5 µM
inconclusive: AC50 [1] 16.6 µM [cytotoxic] | AC50 [3] 20.9 µM [cytotoxic] | AC50 [4] 8.33 µM [cytotoxic] | AC50 [5] 3.32 µM [cytotoxic] | AC50 [6] 16.6 µM [cytotoxic] | AC50 [7] 0.526 µM [cytotoxic]

Cc1cc(CS(=O)(=O)c2ccccc2)cc(OCc2ccc(CN3CCC[C@@H]3CO)cc2)c1
inconclusive: AC50 [2] 11.8 µM [cytotoxic] | AC50 [3] 13.2 µM [cytotoxic] | AC50 [4] 13.2 µM [cytotoxic] | AC50 [5] 23.5 µM [cytotoxic] | AC50 [6] 29.5 µM [cytotoxic] | AC50 [7] 10.5 µM [cytotoxic]
active: AC50 [1] 26.3 µM
inactive: outcome [8]

O=C1NC(=O)/C(=C/c2ccc3nccnc3c2)S1
inconclusive: AC50 [1] 13.2 µM [cytotoxic] | AC50 [2] 7.24 µM [cytotoxic] | AC50 [3] 10.2 µM [cytotoxic] | AC50 [4] 7.24 µM [cytotoxic] | AC50 [5] 16.6 µM [cytotoxic] | AC50 [6] 5.9 µM [cytotoxic] | AC50 [7] 6.45 µM [cytotoxic] | AC50 [8] 14.8 µM [cytotoxic]

OCc1ccc(-c2nn(Cc3ccccc3)c3ccccc23)o1
inactive: outcome [2] | outcome [3] | outcome [7]
inconclusive: AC50 [1] 20.9 µM [cytotoxic] | AC50 [4] 6.62 µM [cytotoxic] | AC50 [5] 16.6 µM [cytotoxic] | AC50 [6] 37.2 µM [cytotoxic]
